# From the supplement of paper PMC12823440, “Inhibitors supercharge kinase turnover through native proteolytic circuits” (Nature, 2025)
# Counter-ions that a name gives are not always drawn. This is one part of the list. Hit calls seldom repeat between salt and free forms of one compound.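 Kinases, fused to nanoluciferase, were expressed in K562 cells; luminescence was measured every 4 h from 2 to 18 h as percent of control (DMSO = 100%, positive control = 0%). A time point is decreased if signal falls significantly (2 sigma). Hits were called by the authors by a rule that is not shown; the count of time points alone does not decide it.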
# Target: MAP2K2 (UniProt P36507)
# Assay: number of time points (of 5) at which kinase-Nluc abundance scored as decreased, DMSO-normalised (count); higher = more persistent destabilization
# Details: K562; 2-18 h
row,SMILES,number of time points
1,Cc1cnc(Cl)nc1-c1ccc(N(Cc2ccc(CNC(=O)C(F)F)cc2)C(=O)c2ccc(O)cc2O)cc1 (10 µM),0
2,COc1cc2c(cc1OC)[C@@H]1C(=O)c3ccc4c(c3O[C@@H]1CO2)C=CC(C)(C)O4 [Deguelin] (10 µM),0
3,CC(C)(CCCCCC(O)CCCCCC(C)(C)C(=O)O)C(=O)O [Bempedoic acid] (10 µM),0
4,COc1cc2nnc(C(N)=O)c(Nc3ccc(C)cc3F)c2cc1N1CCN(CCO)CC1 (2.5 µM),0
5,O=C(Nc1ccc(Cl)cc1)C1CN(C(=O)c2cccc(-c3ccco3)c2)CC(F)(F)C1 (stereo not drawn) (2.5 µM),0
6,CC(=O)O[C@@H]1[C@@H](OC(C)=O)[C@@H](O)[C@H](Oc2c(-c3ccc(O)cc3)oc3cc(O)cc(O)c3c2=O)O[C@H]1C (10 µM),0
7,COc1cc2nc(-c3cc(F)ccc3O)nc(N[C@@H]3CNC[C@H]3C(C)(C)O)c2cc1OC (2.5 µM),0
8,C=CC(=O)Nc1cccc(Oc2nc(Nc3ccc(N4CCN(C)CC4)cc3OC)ncc2Cl)c1 (10 µM),0
9,C=CC(=O)Nc1cc(Nc2nccc(-c3cn(C)c4ccccc34)n2)c(OCC(F)(F)F)nc1N(C)CCNC [AST5902  (trimesylate)] (2.5 µM),0
10,O=C1C=CC2=C3c4cc(O)c(O)cc4CC3(O)COC2=C1O (stereo not drawn) [Hematein] (10 µM),0
11,CCC(F)(F)c1cc(N2CCC(S(C)(=O)=O)CC2)nc2sc(C(N)=O)c(N)c12 (10 µM),0
12,Cn1cc(C2=C(c3ccc(Cl)cc3Cl)C(=O)NC2=O)c2ccccc21 (10 µM),0
13,CCOC(=O)c1c(N2CCc3ccc(OC)cc3C2)oc(C=C2C=Nc3ncccc32)c1O (10 µM),0
14,O=C(COc1ccc(Cl)cc1)NC1CCC(NC(=O)COc2ccc(Cl)cc2)CC1 (stereo not drawn) [ISRIB (trans-isomer)] (10 µM),0
15,COc1ccc(CCNCc2ccc(OCc3ccc(Cl)nc3)c(OC)c2)cc1OC [SBE13 (Hydrochloride)] (10 µM),0
16,Cc1cccc(CC(=O)N2CCc3c2ccc(-c2cn(C)c4ncnc(N)c24)c3F)n1 (10 µM),0
17,COc1cc(N2CCC(N3CCN(C)CC3)CC2)ccc1Nc1ncnc(Nc2ccccc2S(=O)(=O)C(C)C)n1 (10 µM),0

# Looked up above.
# number of time points with `O=C1C=CC2=C3c4cc(O)c(O)cc4CC3(O)COC2=C1O` (stereo not drawn) [Hematein] (10 µM) reads 0
# number of time points with `Cc1cccc(CC(=O)N2CCc3c2ccc(-c2cn(C)c4ncnc(N)c24)c3F)n1` (10 µM) reads 0
# number of time points with `CCOC(=O)c1c(N2CCc3ccc(OC)cc3C2)oc(C=C2C=Nc3ncccc32)c1O` (10 µM) reads 0

# (listing goes on)

row,SMILES,number of time points
1,CC(C)(Oc1ccc(Cl)cc1)C(=O)Nc1ccc(OCc2ccc(C#N)cc2)cc1 [AMPK activator 4] (10 µM),0
2,Cc1cc(N2CCOCC2)ccc1Nc1nc(NC2CCCCC2)c2[nH]cnc2n1 (10 µM),0
3,COC(=O)N1CCN(C2CCC(Nc3nc(Nc4cnn(C)c4)nc4ccc(CC#N)nc34)CC2)CC1 (stereo not drawn) (10 µM),0
4,CN(C)CCn1cc2cc(NC(=O)c3cccc(C(F)(F)F)n3)c(C(C)(C)O)cc2n1 (10 µM),0
5,CCOc1cc(N2CCC(O)CC2)ccc1Nc1ncc2c(n1)N(C1CCCC1)CCC(=O)N2C (2.5 µM),0
6,CCC[C@H](C)Oc1nc(N)c2[nH]c(=O)n(CCCCCN3CCCCC3)c2n1 (10 µM),0
7,Fc1ccc(-c2nc3n(c2-c2ccncc2)CCS3)cc1 (10 µM),0
8,CC(ONC(=O)c1cc(C(F)(F)F)cc(C(F)(F)F)c1)C(=O)Nc1ccc(Cl)cc1 (stereo not drawn) (2.5 µM),0
9,O=C(Nc1ccccc1C(=O)NC1CCCCNC1=O)c1cc2ccccc2s1 (stereo not drawn) (10 µM),0
10,N#CC(=C(/N)Sc1ccccc1N)/C(C#N)=C(\N)Sc1ccccc1N (10 µM),0
11,Nc1ccc(O)c(C(=O)O)c1 [5-Aminosalicylic Acid] (10 µM),0
12,CNCc1ccccc1Sc1cccc2ccccc12 [IFN alpha-IFNAR-IN-1 (hydrochloride)] (10 µM),0
13,CCCCNc1ncc2c(-c3ccc(F)cc3)nn(CC3CCC(N)CC3)c2n1 (stereo not drawn) (2.5 µM),0
14,Cc1ncsc1-c1ccc(CNC(=O)[C@@H]2C[C@@H](O)CN2C(=O)[C@@H](NC(=O)COCCOc2ccc(-c3cc(Nc4ccc(OC(F)(F)F)cc4)ncn3)cc2)C(C)(C)C)cc1 (2.5 µM),0
15,Cn1cnc2c(F)c(Nc3ccc(Br)cc3F)c(C(=O)NOCCO)cc21 [Binimetinib] (10 µM),0
16,O=C1NC(=O)C(Cc2c[nH]c3c(Cl)cccc23)N1 (stereo not drawn) [Necroptosis-IN-1] (10 µM),0
